Measured values: PMC7175249
These are yes or no findings as the source states them, for the method shown. In cells and extracts the contact can be indirect. Some binding calls cover weakened binding; strength is not graded here.

By UniProt entry, the sequences of proteins in these tests, tags left out.
UniProt P40337: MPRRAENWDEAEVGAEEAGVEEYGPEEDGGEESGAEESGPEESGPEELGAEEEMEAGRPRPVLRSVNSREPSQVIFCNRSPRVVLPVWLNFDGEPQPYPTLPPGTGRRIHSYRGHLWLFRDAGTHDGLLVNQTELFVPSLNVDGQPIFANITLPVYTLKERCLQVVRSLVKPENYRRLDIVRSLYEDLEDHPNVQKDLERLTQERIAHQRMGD
UniProt Q16763: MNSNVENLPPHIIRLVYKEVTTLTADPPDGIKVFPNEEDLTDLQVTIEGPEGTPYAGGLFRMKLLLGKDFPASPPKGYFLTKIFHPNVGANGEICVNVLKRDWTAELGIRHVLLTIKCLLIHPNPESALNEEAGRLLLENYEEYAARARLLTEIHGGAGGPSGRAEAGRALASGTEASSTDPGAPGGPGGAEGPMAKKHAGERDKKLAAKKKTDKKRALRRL

Target: Endogenous pVHL (human (endogenous in MHCC-LM3)) (UniProt P40337)
Test: co-IP; endogenous proteins, MHCC-LM3 cells with NC or OTUD6B knockdown, treated with MG132 for 8 h, immunoprecipitation with control IgG or anti-pVHL antibodies

binding: binds
Substance: E2-EPF ubiquitin carrier protein (UCP) (from UniProt Q16763 1-222) (enzyme)
